Measurements: publication PMC7979813

Amino acid sequences for entries named in this document (tags omitted). A change or cut given only in a name is not applied to a line headed by its entry.
UniProt G4MU73: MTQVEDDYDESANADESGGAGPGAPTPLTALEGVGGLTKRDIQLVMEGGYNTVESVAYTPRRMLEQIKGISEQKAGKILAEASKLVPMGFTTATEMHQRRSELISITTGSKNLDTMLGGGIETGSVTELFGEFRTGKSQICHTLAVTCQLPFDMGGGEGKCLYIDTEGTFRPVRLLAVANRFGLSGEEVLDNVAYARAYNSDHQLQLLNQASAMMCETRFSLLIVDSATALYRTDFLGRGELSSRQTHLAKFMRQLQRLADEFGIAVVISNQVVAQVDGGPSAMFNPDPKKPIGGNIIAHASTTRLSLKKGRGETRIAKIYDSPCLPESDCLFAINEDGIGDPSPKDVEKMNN
UniProt G4MU74: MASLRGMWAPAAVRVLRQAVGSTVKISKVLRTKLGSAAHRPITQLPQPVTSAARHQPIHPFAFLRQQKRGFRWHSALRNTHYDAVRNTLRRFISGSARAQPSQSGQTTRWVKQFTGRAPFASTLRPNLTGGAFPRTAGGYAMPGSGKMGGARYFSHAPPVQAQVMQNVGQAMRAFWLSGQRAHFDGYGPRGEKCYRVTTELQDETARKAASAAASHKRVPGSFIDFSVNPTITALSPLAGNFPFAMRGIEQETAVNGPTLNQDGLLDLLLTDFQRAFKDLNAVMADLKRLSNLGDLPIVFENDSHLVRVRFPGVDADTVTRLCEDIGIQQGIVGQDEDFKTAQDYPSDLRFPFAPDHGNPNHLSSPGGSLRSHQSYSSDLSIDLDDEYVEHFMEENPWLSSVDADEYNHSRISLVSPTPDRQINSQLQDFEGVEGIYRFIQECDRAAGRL

Target: Rhm51 (MGG_15576), yeast two-hybrid fusion (Pyricularia oryzae) (UniProt G4MU73)
Test: two-hybrid

For “Ddnm1 (MGG_15577), yeast two-hybrid fusion (from UniProt G4MU74)”, the binding was “binds”.

These are yes or no findings as the source states them, for the method shown. Binding can be weak; no strength is given.
